Data published in the supplement of paper PMC4604168 (melanoma cell lines).
This is one part of the list. Single values are uncertain, as repeats are few or missing.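 The apoptosis fraction was the count of cleaved-PARP antibody-stained nuclei relative to all DNA-stained nuclei, imaged in 1,536-well plates. Screening doses were set so most cells survived, and baseline and induced cleaved-PARP levels vary greatly across cell lines.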

tested on: SkMel28; assay: cleaved PARP positive nuclei fraction relative to DMSO control; melanoma cells; higher = more apoptosis; details: library dose: low library concentration; 72 h

Structure (SMILES)	cleaved PARP positive nuclei fraction [%]
C=CCn1c(=O)c2cnc(Nc3ccc(N4CCN(C)CC4)cc3)nc2n1-c1cccc(C(C)(C)O)n1 + O=C1NC(=O)/C(=C/c2ccc(-c3ccc(F)cc3O)o2)S1 [AS252424] (first compound 0.02 µM, partner dose 1 µM)	98.3
CC1(C)NC(=O)N(c2ccc([N+](=O)[O-])c(C(F)(F)F)c2)C1=O [nilutamide] + COc1ccc(-c2ccc3c(N4CCOCC4)nc(N4C[C@@H](C)O[C@@H](C)C4)nc3n2)cc1CO [KU0063794] (first compound 1 µM, partner dose 0.02 µM)	108
CC(C)(C)c1cnc(CSc2cnc(NC(=O)C3CCNCC3)s2)o1 + Oc1nc(-c2ccc(C(F)(F)F)cc2)nc2c1CSCC2 [XAV939] (first compound 0.01 µM, partner dose 2 µM)	179
COCC[n+]1c2c(n(Cc3cnccn3)c1C)C(=O)c1ccccc1C2=O + COc1ccc(COc2ccc(Cc3cnc(N)nc3N)cc2OC)cc1 [GW2580] (first compound 0.0004 µM, partner dose 1 µM)	129
Nc1cccc2c1CN(C1CCC(=O)NC1=O)C2=O (stereo unspecified) [lenalidomide] + COc1cc2ncnc(Nc3ccc(Oc4ccccc4)cc3)c2cc1OC [SrcI1] (first compound 1 µM, partner dose 2 µM)	144
CO[C@@H]1[C@H](N(C)C(=O)c2ccccc2)C[C@H]2O[C@]1(C)n1c3ccccc3c3c4c(c5c6ccccc6n2c5c31)C(=O)NC4 [Midostaurin] + COc1ccc2c(c1)CCC1C2CCC2(C)C(NCCCCCCN3C(=O)C=CC3=O)CCC12 [U73122] (first compound 0.08 µM, partner dose 0.4 µM)	204

2 entries from above, reformatted:

| Structure (SMILES) | cleaved PARP positive nuclei fraction [%] |
| --- | --- |
| C=CCn1c(=O)c2cnc(Nc3ccc(N4CCN(C)CC4)cc3)nc2n1-c1cccc(C(C)(C)O)n1 + O=C1NC(=O)/C(=C/c2ccc(-c3ccc(F)cc3O)o2)S1 [AS252424] (first compound 0.02 µM, partner dose 1 µM) | 98.3 |
| CC1(C)NC(=O)N(c2ccc([N+](=O)[O-])c(C(F)(F)F)c2)C1=O [nilutamide] + COc1ccc(-c2ccc3c(N4CCOCC4)nc(N4C[C@@H](C)O[C@@H](C)C4)nc3n2)cc1CO [KU0063794] (first compound 1 µM, partner dose 0.02 µM) | 108 |
